# PubChem BioAssay AID2551 (National Center for Advancing Translational Sciences (NCATS), 2010)
# Sequences of proteins named here, by UniProt entry; tags and fusion partners are left off. A change or cut given only in a name is not applied to a line headed by its entry.
# UniProt P51450: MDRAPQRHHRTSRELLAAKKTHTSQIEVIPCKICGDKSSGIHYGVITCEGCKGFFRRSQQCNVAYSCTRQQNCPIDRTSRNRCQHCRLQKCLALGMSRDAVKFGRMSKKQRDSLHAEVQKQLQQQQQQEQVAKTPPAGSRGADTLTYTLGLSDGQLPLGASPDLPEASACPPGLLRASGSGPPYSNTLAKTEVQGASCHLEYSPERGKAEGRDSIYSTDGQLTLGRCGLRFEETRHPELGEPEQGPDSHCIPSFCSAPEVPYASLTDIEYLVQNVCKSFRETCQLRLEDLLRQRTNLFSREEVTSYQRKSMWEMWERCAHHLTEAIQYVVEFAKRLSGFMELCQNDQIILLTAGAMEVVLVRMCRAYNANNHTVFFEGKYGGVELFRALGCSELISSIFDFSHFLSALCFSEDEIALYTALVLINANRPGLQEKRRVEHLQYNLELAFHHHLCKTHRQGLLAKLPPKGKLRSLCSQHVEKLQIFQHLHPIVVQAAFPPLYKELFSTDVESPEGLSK
# Hit rate of the full screen: of about 310,000 compounds, about 17,000 (5.5%) were called active. Inconclusive results, whose numbers are uncertain, are shown with a selection of clear calls. The call rests on the fitted dose curve; in most records, active means well fitted inhibition curve with a large enough effect; inconclusive means small, poorly fitted or top-dose-only effect, or effect the other way; inactive means no such curve, though single readings can be large or run the other way. A potency beside an inconclusive call is a rough fit, not a confirmed value.
# Target: Nuclear receptor ROR-gamma (Mus musculus) (UniProt P51450)
# Assay: qHTS for inhibitors of ROR gamma transcriptional activity; further: nearly all actives have a fitted effect of over 60% in size
# Conditions: Drosophila S2 Gal4-RORgamma UAS-luciferase reporter, 20 h; activity change, negative = inhibition: at 53.6 µM (top of the series)
# How it was run: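 Stable Schneider cell line, Gal4 DNA-binding domain fused to ROR gamma, UAS-luciferase. Cmpd 1 hr RT → CuSO4 700 uM final → 20 hr RT → luciferase reagent 10 min → luminescence.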
# On the % scale 0 is the no-effect control and ±100 the full control effect; potency means the concentration at half of the fitted maximal effect.
Compound,Potency,"activity change, negative = inhibition"
CCCn1c(NC(=O)c2ccccc2Br)nc2ccccc21,active: 0.355 µM,
Cc1ccc(CN2CC(C(=O)Nc3nnc(SCc4c(Cl)cccc4Cl)s3)CC2=O)cc1 (stereo not given),"inconclusive: 35.5 µM [activator, single point]",
Cc1ccc(-c2cc(C(=O)NCc3ccccn3)c3ccccc3n2)cc1C,"inconclusive: 17.8 µM [inhibitor, single point]",
O=C(Nc1cc(S(=O)(=O)Nc2ccc(Cl)cc2)ccc1O)c1ccc(S(=O)(=O)N2CCCCCC2)cc1,"inconclusive: 35.5 µM [inhibitor, single point]",
O=C(c1cccs1)N1CCN(C23CC4CC(CC(C4)C2)C3)CC1,"inconclusive: 12.6 µM [activator, single point]",
O=C(CN1CCN(Cc2ccc(F)cc2)CC1)Nc1nc2ccccc2s1,,inactive: 6.97%
C/C(=N\NC(=O)C1(C)CC1(Br)Br)c1cccc(NC(=O)c2ccc(C)o2)c1 (stereo not given),"inconclusive: 12.6 µM [activator, partial curve]",
CS(=O)(=O)Nc1cccc(C(=O)OCCCOc2ccc(F)cc2)c1,,inactive: 0.823%
CCOC(=O)/C(=N\NC(=O)c1ccccc1)c1ccccc1,,inactive: 10.5%
CCOc1ccccc1-c1cc(C(=O)N/N=C/c2ccc3c(c2)OCO3)c2ccccc2n1,,inactive: 20.7%
COC(=O)C(Nc1ccccc1Cl)(c1cc(C)c(O)c(C)c1)C(F)(F)F (stereo not given),,inactive: -0.464%
CC1(C)CC[C@]2(C(=O)O)CC[C@]3(C)C(=CCC4[C@@]5(C)CC[C@H](O)C(C)(C)C5CC[C@]43C)C2C1 (stereo not given in full),active: 6.31 µM,
COc1ccc(S(=O)(=O)NN(C)C(=O)c2nn(-c3ccccc3)ccc2=O)cc1,,inactive: 10.3%
CCOc1ccc(NC(=O)Nc2cccs2)cc1,,inactive: -40.4%
O=C(CN(C(=O)CCC(=O)Nc1nccs1)c1ccccc1F)NCc1ccc(F)cc1,,inactive: 1.94%
CCC1=Nc2cc(C(=O)NCCCOC)ccc2Sc2ccccc21,"inconclusive: 11.2 µM [activator, single point]",
CC(C)Oc1ccc(C2C(C(=O)c3ccco3)=C(O)C(=O)N2Cc2cccnc2)cc1 (stereo not given),"inconclusive: 35.5 µM [activator, single point]",
CC(=NCCc1c(C)[nH]c2ccc(C)cc12)C1=C(O)CC(c2ccccc2)CC1=O (stereo not given),,inactive: 37.2%
O=C(NCc1nnc(SCC(=O)N2CCOCC2)o1)c1cccs1,,inactive: 14.5%
O=C(c1cccc(F)c1)N1CCN(Cc2ccc3c(c2)OCO3)CC1,,inactive: -1.17%
COc1ccc(C2c3[nH]c4ccccc4c3CC3C(=O)N(CCc4ccc(OC)c(OC)c4)CC(=O)N32)cc1 (stereo not given),"inconclusive: 31.6 µM [activator, single point]",
CCN1CCN(C(=O)c2ccc3c(=O)n(CCC4=CCCCC4)c(=O)[nH]c3c2)CC1,"inconclusive: 20 µM [activator, single point]",
COc1ccc(-n2ncc3c(N(C)C4CCCCC4)ncnc32)cc1,active: 0.251 µM,

Compound,Potency,"activity change, negative = inhibition"
COC(=O)c1ccc(NC(=S)N2CCN(Cc3ccccc3Cl)CC2)cc1,"inconclusive: 15.8 µM [inhibitor, single point]",
CS(=O)(=O)c1ccc2nc(NC(=O)c3cc([N+](=O)[O-])cc([N+](=O)[O-])c3)sc2c1,"inconclusive: 35.5 µM [activator, single point]",
C=C(C(=O)c1ccccc1)C(CC(=O)c1ccccc1)c1ccccc1 (stereo not given),"inconclusive: 14.1 µM [inhibitor, single point]",
Cc1ccsc1/C=N/NC(=O)c1c[nH]c2ccccc12,"inconclusive: 35.5 µM [inhibitor, single point]",
Cc1cc(C(=O)Cn2ncc(Cl)c(Cl)c2=O)c(C)n1CC(F)(F)F,"inconclusive: 12.6 µM [inhibitor, partial curve, poor fit]",
Cc1cccc(NC(=O)C2C3C=CC(C4CC34)C2C(=O)O)c1 (stereo not given),"inconclusive: 31.6 µM [activator, single point]",
O=C1c2ccccc2-c2nc3ccccc3cc21,"inconclusive: 11.2 µM [inhibitor, partial curve]",
CCCCNC(=O)CCNS(=O)(=O)c1ccc(Br)cc1,"inconclusive: 0.794 µM [activator, single point]",
O=C(CSCC(=O)NC1CC1)Nc1ccc2ccccc2c1,"inconclusive: 0.631 µM [activator, single point]",
Cc1ccc(S(=O)(=O)NC(=O)N2CCC(C)CC2)cc1,"inconclusive: 22.4 µM [inhibitor, single point]",
COCCNC(=O)CSc1cc(=O)n(C)c2cc(Cl)ccc12,,inactive: -14.2%
CCC1=NN(C(=O)c2ccc(Cl)cc2)C(O)(c2ccccc2)C1 (stereo not given),"inconclusive: 10 µM [inhibitor, partial curve, poor fit]",
CN1CCN(CCc2nc3cc(NC(=O)c4ccco4)ccc3n2C)CC1,"inconclusive: 7.08 µM [activator, partial curve]",
Cc1ccc(S(=O)(=O)N(CC2CO2)c2cccc([N+](=O)[O-])c2)cc1 (stereo not given),,inactive: -12.2%
O=C1/C(=C/c2cccs2)NC(=S)N1C1CC1,active: 7.08 µM,
Cc1cc(=O)n2[nH]c(-c3cccc(Cl)c3)cc2n1,"inconclusive: 0.708 µM [inhibitor, single point]",
CCC(=O)Nc1ccc(NC(=O)/C=C/c2ccc(Cl)cc2)cc1,"inconclusive: 6.31 µM [activator, single point]",
Cc1ccc2[nH]c(=O)c(C(c3nnnn3C3CCCC3)N(Cc3cccnc3)Cc3ccco3)cc2c1 (stereo not given),"inconclusive: 35.5 µM [activator, single point]",
O=C(NCc1ccccc1)c1ccc2c(c1)C(=O)N(Cc1cccnc1)C2=O,,inactive: -0.0836%
CC(NC(=O)CN(c1cccc(C(F)(F)F)c1)S(=O)(=O)c1ccc(Cl)c([N+](=O)[O-])c1)c1ccccc1 (stereo not given),"inconclusive: 20 µM [inhibitor, single point]",
Cc1cccn2c(/C=N/OCc3cccc(F)c3)c(-c3ccc(Cl)cc3)nc12,active: 2.24 µM,
COc1ccc(CCNC(=O)c2cc(C(=O)c3cc(Cl)ccc3O)cn(CCc3ccc(OC)cc3)c2=O)cc1,"inconclusive: 7.94 µM [activator, partial curve]",

# Of the compounds above, these contain a COOH group:
Compound,Potency,"activity change, negative = inhibition"
CC1(C)CC[C@]2(C(=O)O)CC[C@]3(C)C(=CCC4[C@@]5(C)CC[C@H](O)C(C)(C)C5CC[C@]43C)C2C1 (stereo not given in full),active: 6.31 µM,
Cc1cccc(NC(=O)C2C3C=CC(C4CC34)C2C(=O)O)c1 (stereo not given),"inconclusive: 31.6 µM [activator, single point]",
